Data as given in PubChem BioAssay AID743454 (Peter MacCallum Cancer Centre, 2014).

- Purpose: 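Search for knock-downs that restore vorinostat killing in resistant colon cancer cells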 (primary screen)
- Cells: human HCT116-VR colon cancer cells, selected for vorinostat resistance
- Reagent: siRNA pool against human genes, 40 nM siRNA pool
- Time to read-out: vorinostat for 24 h, read-out about 72 h after transfection
- Challenge: vorinostat at 2.5 µM final
- Measured: 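Cell viability by CellTiter-Fluor and caspase 3/7 activity by luminescence, each scaled to mock wells per plate, duplicates averaged, then robust z-scored over all plates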
- Direction: viability robust z-score: higher = more viable cells than screen typical; caspase robust z-score: higher = more caspase 3/7 activity than screen typical
- Hit rule: 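Hits are knock-downs in viability class RV1/RV2 or caspase class CA1/CA2, excluding ones that killed cells in the no-drug cell-count arm; hits then retested with single siRNAs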
The whole screen tested about 18,000 reagents; shown is a random part of them. Over the whole deposit, 450 (2.5%) got an active call. 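Single biological run; no consistent viability z cut-off exists, so the class columns, not z-scores, define the calls.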 Unmarked entries are inactive.

For SCAND1 (GeneID 51282), what does the deposit list?
viability hit class: no change; caspase hit class: no change; viability robust z-score: -1.38; caspase robust z-score: 0

For EIF2AK2 (GeneID 5610), what does the deposit list?
viability hit class: no change; caspase hit class: no change; viability robust z-score: 0.18; caspase robust z-score: -0.73

For BAGE (GeneID 574), how do the results read?
viability hit class: no change; caspase hit class: no change; viability robust z-score: 1; caspase robust z-score: -0.97

With LRIG2 (GeneID 9860), how do the results read?
viability hit class: no change; caspase hit class: no change; viability robust z-score: -2.66; caspase robust z-score: 0.13

How did the screen score KLRB1 (GeneID 3820)?
viability hit class: no change; caspase hit class: no change; viability robust z-score: 2.31; caspase robust z-score: -0.6

Which result is listed for NETO1 (GeneID 81832)?
viability hit class: no change; caspase hit class: no change; viability robust z-score: -0.25; caspase robust z-score: -0.04

What is on record for AOC1 (GeneID 26)?
viability hit class: no change (active); caspase hit class: CA1 (caspase activation); viability robust z-score: -1.03; caspase robust z-score: 6.74

What is on record for FAM209B (GeneID 388799)?
viability hit class: no change; caspase hit class: no change; viability robust z-score: 0.96; caspase robust z-score: -0.72

What is on record for SYP (GeneID 6855)?
viability hit class: no change; caspase hit class: no change; viability robust z-score: -0.01; caspase robust z-score: -0.94

With LHPP (GeneID 64077), what was measured?
viability hit class: no change; caspase hit class: no change; viability robust z-score: -0.71; caspase robust z-score: 0.36

For NUDT22 (GeneID 84304), how do the results read?
viability hit class: no change; caspase hit class: no change; viability robust z-score: -1.38; caspase robust z-score: -0.5

Which result is listed for CASP9 (GeneID 842)?
viability hit class: no change; caspase hit class: no change; viability robust z-score: -1.17; caspase robust z-score: -0.35

A run of entries taken from the entries so far:
BAGE (GeneID 574): viability hit class = no change; caspase hit class = no change; viability robust z-score = 1; caspase robust z-score = -0.97
LRIG2 (GeneID 9860): viability hit class = no change; caspase hit class = no change; viability robust z-score = -2.66; caspase robust z-score = 0.13
